Reference: publication doi:10.1101/2023.10.06.561273, “Bacterial cell surface nanoenvironment requires a specialized chaperone to activate a peptidoglycan biosynthetic enzyme” (bioRxiv, 2023)

Target: T1, FLAG-tagged SpoVK harboring a disrupted Walker B motif (SpoVK^B*-FLAG) (B. subtilis) (UniProt P27643)
T1 sequence: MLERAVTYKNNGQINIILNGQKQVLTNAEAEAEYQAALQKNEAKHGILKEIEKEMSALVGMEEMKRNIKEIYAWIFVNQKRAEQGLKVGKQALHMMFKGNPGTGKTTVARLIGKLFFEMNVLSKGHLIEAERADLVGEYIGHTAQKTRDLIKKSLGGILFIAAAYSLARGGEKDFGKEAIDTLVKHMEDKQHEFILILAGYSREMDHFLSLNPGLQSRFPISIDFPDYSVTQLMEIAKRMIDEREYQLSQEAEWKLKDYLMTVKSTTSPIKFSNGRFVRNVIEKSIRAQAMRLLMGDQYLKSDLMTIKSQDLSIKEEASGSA
Assay: affinity purification with mass spectrometry; anti-FLAG magnetic beads on extracts of B. subtilis 4 h after induction of sporulation (cells with SpoVID, or ΔspoVID cells); binding buffer 50 mM Tris-HCl pH 7.5, 150 mM NaCl, 7.5% glycerol, 0.2% Triton-X-100, 4 °C, 1 h; eluate on silver-stained SDS-PAGE, bands digested with trypsin and identified by mass spectrometry

binding: binds
B1: SpoVID (protein, UniProt P37963 1-575)
chain: MPQNHRLQFSVEESICFQKGQEVSELLSISLDPDIRVQEVNDYVSIIGSLELTGEYNIDQNKHTEEIYTDKRFVEQVRKREDGSAELTHCFPVDITIPKNKVSHLQDVFVFIDAFDYQLTDSRILTIQADLAIEGLLDDTQDKEPEIPLYEAPAAFREEELSEPPAHSVVEEPGASSAEEAVLQHEPPAEPPELFISKAGLREELETEKAESEPPESVASEPEAREDVKEEEESEELAVPETEVRAESETEESEPEPDPSEIEIQEIVKAKKETAEPAAAIADVREEADSPAETELREHVGAEESPALEAELHSETVIAKEKEETTVSPNHEYALRQEAQNEEAAQSDQADPALCQEEAEPDEALESVSEAALSIEDSRETASAVYMENDNADLHFHFNQKTSSEEASQEELPEPAYRTFLPEQEEEDSFYSAPKLLEEEEQEEESFEIEVRKTPSAEEPKEETPFQSFQLPESSETERKETDAVPRVAPAAETKEPQTKESDNSLYLTKLFTKEADEFSRMKICIVQQEDTIERLCERYEITSQQLIRMNSLALDDELKAGQILYIPQYKNSHA

binding: binds
B2: MurG (enzyme, UniProt P37585 1-363)
chain: MRIAISGGGTGGHIYPALAFIKEVQRRHPNVEFLYIGTENGLEKKIVERENIPFRSIEITGFKRKLSFENVKTVMRFLKGVKKSKSYLAEFKPDAVIGTGGYVCGPVVYAAAKMGIPTIVHEQNSLPGITNKFLSKYVNKVAICFEEAKSHFPSEKVVFTGNPRASEVVSIKTGRSLAEFGLSEDKKTVLIFGGSRGAAPINRAVIDMQDVLKTRDYQVLYITGEVHYEKVMNELKSKGAADNMVTKPFLHQMPEYLKAIDVIVARAGATTIAEITALGIPSVLIPSPYVTANHQEVNARSLGQHDAAIVLKETELSGEKLIEALDRIVLNEQTLKEMSERTKSLGVPDAAARLYSVLEELKK

These are yes or no findings as the source states them, for the method shown. In cells and extracts the contact can be indirect. Here binding means that the protein was enriched with, or labelled near, the bait; the list need not be complete. Where a sequence is shown, tags or fusion partners need not be part of it. One block for each binder: values may come before it.
